Assay results from US20060105013A1, “Osteopontin-coated surfaces and methods of use” (priority 2000, published 2006).

System: human osteoprogenitor cells
Experiment: Peptide binding: attachment and spreading of human osteoprogenitor cells on coated plates
Format: cell-based
Conditions: no antibody
Experimental: Example 11 analyzes the binding and cell spread activity of various peptides. The activities were measured in 24-well plates that were coated overnight at 4° C. with 10 μg/ml of the indicated ligand or peptide and then blocked for one hour at room temperature with 10 mg/ml BSA (Bovine Serum Albumin) in PBS (Phosphate Buffered Saline). To preserve the integrity of the adhesion receptors osteoprogenitor cells were harvested from sub-confluent cultures by non-enzymatic cell dissociation solution (Sigma, St. Louis, Mo.). Cells were washed twice with PBS and re-suspended at a concentration of 1×10^5 cells/ml of sterile Ca^2+- and Mg^2+-free PBS, supplemented with 0.1% BSA and 1 mM sodium pyruvate. […] The total number of attached or spread cells in each well were counted microscopically using a Nikon Eclipse microscope equipped with a Sony digital camera. Total number of attached or spread cells were quantified using an Optima 5.2 image analysis system. […] To minimize variability inherent to cell attachment studies cells were scored as attached only when a defined nucleus observed accompanied by a transition from round to cuboidal cell morphology. Round cells that are loosely attached with no defined nucleus were scored as non-attached. […] Cell spreading was determined by membrane contour analysis and was scored according to increase in cell volume/surface area. […]

B1: RSRRATEVFTPVVPTVDTYDGRGDSVVYGRRSKSKKFRRPAGAAGG PAGPAG PAGPAGPAGPA (peptide)
chain: RSRRATEVFTPVVPTVDTYDGRGDSVVYGRRSKSKKFRRPAGAAGGPAGPAGPAGPAGPAGPA
- % Spread: 91.6%
- % total attached cells: 84.6%
